From PubChem BioAssay AID720504 (National Center for Advancing Translational Sciences (NCATS), 2013)
Among all 360,000 compounds or so, about 10,000 (2.8%) were called active. This list was built around the results that the source calls inconclusive (neither active nor inactive); the mix of calls is not that of the screen. Calls follow the shape of the dose curve; as a rule, active = well fitted inhibition curve with a large enough effect; inconclusive = small, poorly fitted or top-dose-only effect; inactive = flat fitted curve, though single readings scatter. Where the call is inconclusive, the potency comes from a doubtful curve fit.

By UniProt entry, the sequences of proteins in these tests, tags left out.
UniProt P53350, whole entry, looked up: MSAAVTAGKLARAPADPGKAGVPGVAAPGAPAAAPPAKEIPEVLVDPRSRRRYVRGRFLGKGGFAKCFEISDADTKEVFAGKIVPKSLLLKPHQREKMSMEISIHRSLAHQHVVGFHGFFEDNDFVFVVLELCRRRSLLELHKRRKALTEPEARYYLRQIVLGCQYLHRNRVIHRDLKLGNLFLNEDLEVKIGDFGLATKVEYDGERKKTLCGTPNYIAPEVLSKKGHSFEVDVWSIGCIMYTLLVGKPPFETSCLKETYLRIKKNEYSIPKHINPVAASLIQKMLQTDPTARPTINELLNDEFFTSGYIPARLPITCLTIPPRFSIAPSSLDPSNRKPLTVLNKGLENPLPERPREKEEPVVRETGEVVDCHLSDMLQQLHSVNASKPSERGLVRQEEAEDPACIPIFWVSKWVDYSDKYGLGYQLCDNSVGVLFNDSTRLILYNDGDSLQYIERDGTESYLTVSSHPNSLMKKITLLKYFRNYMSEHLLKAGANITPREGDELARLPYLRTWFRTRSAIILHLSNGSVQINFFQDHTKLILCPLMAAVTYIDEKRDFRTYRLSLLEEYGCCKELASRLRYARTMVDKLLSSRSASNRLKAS

Biological target: Serine/threonine-protein kinase PLK1 (Homo sapiens) (UniProt P53350)
Experiment: qHTS for Inhibitors of PLK1-PDB (polo-like kinase 1 - polo-box domain): Primary Screen; also: nearly all actives have a fitted effect of over 65% in size; as to max response, negative = inhibition: series mostly up to about 57 µM
Details: Plk1 PBD binding of FITC phosphopeptide, fluorescence polarization
% is scaled to controls: 0 for no effect and ±100 for the full control effect; potency is read from the fitted curve at half-maximal effect.

SMILES | Potency | max response, negative = inhibition
O=c1[nH]c2c(s1)C(c1ccccc1)C1C3CCC(C3)C1S2 (stereo not drawn) | inconclusive: 29.9 µM [inhibitor, partial curve] | –
O=C(NCc1ccccc1)C1=C[C@@H](c2ccccc2)C[C@@H](OCc2ccc(CO)cc2)O1 | – | inactive: -4.15%
Cc1nc2c(C)cccc2c(SC(=N)N)c1CC=C(Cl)Cl | inconclusive: 33.6 µM [inhibitor, partial curve] | –
Cc1ccc(-n2c(=S)sc3c(=O)n(-c4ccccc4F)c(SCC(=O)O)nc32)cc1C | inconclusive: 42.3 µM [inhibitor, partial curve, poor fit] | –
Cn1c2c(c(=O)[nH]c1=O)C(c1ccc(O)cc1)C1=C(N2)c2ccccc2C1=O (stereo not drawn) | inconclusive: 33.6 µM [inhibitor, single point] | –
Cc1ccc(C)c(-n2c(CNC(=O)c3ccco3)nnc2SCC(=O)Nc2nccs2)c1 | inconclusive: 23.8 µM [inhibitor, partial curve] | –
COc1ccc(-c2nc(NC(=O)C3CC(=O)N(Cc4ccco4)C3)sc2C)cc1 (stereo not drawn) | – | inactive: -17.7%
CC(O)CNc1nc2ccccc2n1CC(=O)NC12CC3CC(CC(C3)C1)C2 (stereo not drawn) | – | inconclusive: -31.5% [inhibitor]
Cc1ccc(Cl)cc1N1CCN(C(=O)CN(C2CCCCC2)S(C)(=O)=O)CC1 | – | inactive: -25.3%
Cc1nc2c(=O)[nH]c(=S)n(C)c2nc1C | active: 2.99 µM | –
Cc1cc(C)c2c(c1)[C@@H]1C=CC[C@@H]1[C@H](c1ccc(S(=O)(=O)N3CCOCC3)cc1)N2 | inconclusive: 16.8 µM [inhibitor, partial curve] | –
CC(C)CN(c1ccccc1)S(=O)(=O)c1nnc(NC(=O)c2ccco2)s1 | inconclusive: 33.6 µM [inhibitor, partial curve] | –
O=C(CSc1nnc(-c2ccc(O)cc2)n1Cc1ccccc1)NNC(=O)c1ccc(Br)cc1 | inconclusive: 23.8 µM [inhibitor, partial curve] | –
COc1ccc(Cl)cc1-c1n[nH]c(=S)n1C | – | inactive: -12.4%
O=C(O)C1CCCCC1C(=O)Nc1nc(-c2ccc(Cl)s2)cs1 (stereo not drawn) | inconclusive: 33.6 µM [inhibitor, partial curve] | –
O=c1[nH]c(Nc2ccc3c(c2)OCCO3)nnc1Cc1ccccc1 | inconclusive: 21.2 µM [inhibitor, single point] | –
CCCCNc1nccnc1-c1cccc(C=O)c1 | – | inactive: -4.69%
COc1cccc2c1C(=O)c1c(O)c3c(c(O)c1C2=O)CC(O)(C(=O)CO)CC3OC1CC(N(C)C)C(O)C(C)O1 (stereo not drawn) | inconclusive: 10.6 µM [inhibitor, partial curve] | –
COC(=O)c1c(N2C(=O)CC(Sc3ccccc3C(=O)O)C2=O)sc(C)c1C (stereo not drawn) | inconclusive: 37.7 µM [inhibitor, single point] | –
CCc1nc2ccc(C(=O)NCCCn3ccnc3)cn2c1N(C)Cc1ccc(OC)cc1 | – | inactive: 0.129%
CC(Oc1ccc(Br)cc1)c1nc2c3ccccc3nc(=S)n2[nH]1 (stereo not drawn) | – | inconclusive: -31.8% [inhibitor]
O=C(NCc1ccc(F)cc1)c1cccc2c1C(=O)c1ccc(N3CCC(Cc4ccccc4)CC3)cc1S2(=O)=O | inconclusive: 15 µM [inhibitor, partial curve] | –
Cc1ccc(-n2nnnc2SCC(=O)Nc2cc(C)on2)c(C)c1 | inconclusive: 26.7 µM [inhibitor, single point] | –
O=C1[C@@H]2C(c3cccnc3)=NO[C@@H]2C(=O)N1c1ccc2ccccc2c1 | inconclusive: 26.7 µM [inhibitor, partial curve] | –
COc1ccc2nc(N3C(=O)C(O)=C(C(=O)c4ccco4)C3c3ccccc3OC)sc2c1 (stereo not drawn) | – | inconclusive: -30.7% [inhibitor]

Reformatted with each value named: part of the list above
Cc1ccc(C)c(-n2c(CNC(=O)c3ccco3)nnc2SCC(=O)Nc2nccs2)c1
  Potency: inconclusive: 23.8 µM [inhibitor, partial curve]
COc1ccc(-c2nc(NC(=O)C3CC(=O)N(Cc4ccco4)C3)sc2C)cc1 (stereo not drawn)
  max response, negative = inhibition: inactive: -17.7%

(further entries)

SMILES | Potency | max response, negative = inhibition
Cc1ccc(Nc2nc(N)nc(CSc3nncn3C)n2)cc1 | – | inactive: -0.422%
COC(=O)CN1C(=O)C2(C(C#N)=C(N)Oc3c2c(C)nn3-c2ccccc2)c2ccccc21 (stereo not drawn) | inconclusive: 16.8 µM [inhibitor, partial curve] | –
COCC(=O)Nc1cccc(C(F)(F)F)c1 | inconclusive: 29.9 µM [inhibitor, partial curve] | –
CCOC(=O)C1=C(CC)Nc2ccccc2N=C1N | inconclusive: 37.7 µM [inhibitor, single point] | –
Cn1cnnc1SC/C(O)=C(\C#N)c1nc2ccccc2[nH]1 | inconclusive: 26.7 µM [inhibitor, single point] | –
CCOc1ccc(/C=N/OCC(=O)NCc2ccco2)cc1 | active: 15 µM | –
C/C=C/c1ccc(OCC(=O)Nc2cc(OC)c(OC)c(OC)c2)c(OC)c1 | inconclusive: 26.7 µM [inhibitor, single point] | –
OC(c1ccc2c(c1)OCO2)c1nccc2ccccc12 (stereo not drawn) | – | inactive: -4.42%
CCOc1ccc(-n2cc(C(=O)NC(C)C)c3cc(OC)c(OC)cc3c2=O)cc1 | active: 23.8 µM | –
CC1=NN(c2ccc(C(=O)O)cc2)C(=O)/C1=C\c1ccc(OC(=O)c2cccs2)cc1 | active: 0.752 µM | –
O=C(CNS(=O)(=O)c1ccc(C(=O)N2CCCCC2)cc1)N1CCCCC1 | active: 29.9 µM | –
O=C(Nc1ccccc1)Nc1ncc([N+](=O)[O-])s1 | inconclusive: 37.7 µM [inhibitor, single point] | –
Cc1ccc(C)c(OCCCCCn2ccnc2)c1 | – | inactive: -0.0435%
Cc1ccc(S(=O)(=O)CNC(=S)c2cccc(C)c2)cc1 | inconclusive: 28.2 µM [inhibitor, partial curve] | –
COC(=O)c1ccc(OCC(=O)c2ccccc2OC)cc1 | – | inactive: 2.98%
CC1CCN(c2ccc(/C=N/n3nnnc3N)cc2[N+](=O)[O-])CC1 | – | inactive: -5.63%
CCOc1ccc2c(c1)ncn2Cc1ccccc1 | inconclusive: 16.8 µM [inhibitor, partial curve] | –
CC(=O)NCc1ccc(S(=O)(=O)N/N=C/c2ccccc2)cc1 | inconclusive: 21.2 µM [inhibitor, single point] | –
O=[N+]([O-])c1cccc(/C=N\N=C2c3ccccc3-c3ccccc32)c1O | inconclusive: 23.8 µM [inhibitor, partial curve] | –
S=C(NCCN1CCCCC1)Nc1ccc(Br)cc1 | – | inactive: -9.05%
Cc1cc(C(=O)Nc2cccc3ccccc23)c(C)o1 | – | inactive: -22.6%
CCCC1=Nc2cc(C(=O)N3CCCC3)ccc2Sc2ccc(C)cc21 | active: 26.7 µM | –
CC(=O)C1=C(O)C(=O)N(c2ccc(C)cc2)C1c1ccc([N+](=O)[O-])cc1 (stereo not drawn) | active: 26.7 µM | –
Clc1nssc1=Nc1nncs1 | active: 2.38 µM | –
COc1ccccc1C(=O)Nc1ccccc1N1CCOCC1 | – | inactive: -18.3%

SMILES | Potency | max response, negative = inhibition
O=C(CCS(=O)(=O)c1ccccc1Cl)NCCC1=CCCCC1 | inconclusive: 16.8 µM [inhibitor, single point] | –
CC(C)(C)C1=Nn2c(nnc2-c2n[nH]c3c2CCC3)SC1 | active: 23.8 µM | –
S=c1[nH]nc(Nc2ccc(Cl)cc2)s1 | active: 13.4 µM | –
CCCCCOC(=O)Cc1c(O)c2ccccc2n(C)c1=O | inconclusive: 26.7 µM [inhibitor, partial curve] | –
C=CCSC1=C(C#N)C(c2ccccc2Cl)CC(=O)N1 (stereo not drawn) | inconclusive: 21.2 µM [inhibitor, partial curve] | –
NS(=O)(=O)c1ccc(OC(=O)CNC(=O)OCc2ccccc2)cc1 | – | inconclusive: -33.4% [inhibitor]
S=C(Nc1ccc(Oc2ccccc2)cc1)N(CCCN1CCOCC1)Cc1ccccn1 | inconclusive: 29.9 µM [inhibitor, partial curve] | –
Cc1ccc(N2C(=O)[C@@H]3C(c4cccnc4)=NO[C@@H]3C2=O)cc1 | – | inactive: -9.31%
CC(=O)C1CCC2C3CCC4CC(=O)CCC4(C)C3C(C)(O)CC12C (stereo not drawn) | – | inactive: -1.2%
COc1ccc2nc(NC(=O)CSc3nc(SC)ns3)sc2c1 | – | inconclusive: -31% [inhibitor]
CCc1nc2sc3ccccc3c(=O)c2c(=O)n1Cc1ccco1 | inconclusive: 23.8 µM [inhibitor, partial curve] | –
C=CCn1c(=S)[nH]c2scc(-c3ccco3)c2c1=O | active: 26.7 µM | –
O=C1OCCC1Sc1nnc(-c2ccc(O)cc2)o1 (stereo not drawn) | active: 26.7 µM | –
C(=C\c1ccccc1)/C=N/Nc1nc2ccccc2[nH]1 | – | inactive: -26.8%
Cc1ccc(S(=O)(=O)N2[C@@H](c3ccc(C(C)(C)C)cc3)C(C(=O)O)=CC[C@H]2c2ccc(C(C)C)cc2)cc1 | active: 16.8 µM | –
O=S(=O)(Nc1ncccn1)c1ccccc1 | active: 23.8 µM | –
COc1cc(C(=O)Oc2cccc(C(=S)N3CCOCC3)c2)cc(OC)c1OC | inconclusive: 21.2 µM [inhibitor, partial curve] | –
CCOc1ccc(Br)cc1S(=O)(=O)Nc1cccc(S(=O)(=O)Nc2ccccc2C(=O)O)c1 | inconclusive: 18.9 µM [inhibitor, partial curve] | –
CC(C)(C)c1ccc(OCCCNCc2ccccc2)cc1 | – | inactive: 2.59%
Cc1cc(/C=C2/C(=N)N3C(=NC2=O)SN=C3S(C)(=O)=O)c(C)n1-c1ccc(F)cc1 | inconclusive: 21.2 µM [inhibitor, single point] | –
O=C(Cc1ccc(Br)cc1)N1CCN(c2ccccn2)CC1 | active: 29.9 µM | –
COc1ccc(C(=O)NCc2nnc(SCC(=O)Nc3nnc(C)s3)o2)cc1 | – | inconclusive: -36.5% [inhibitor]
CCN(CC)S(=O)(=O)c1ccc(Cl)c(C(=O)Oc2cccnc2)c1 | inconclusive: 26.7 µM [inhibitor, single point] | –

Complete entries, quoted from the list. Order of values: Potency	max response, negative = inhibition
O=C(Cc1ccc(Br)cc1)N1CCN(c2ccccn2)CC1 is entered as active: 29.9 µM	–
O=C1OCCC1Sc1nnc(-c2ccc(O)cc2)o1 (stereo not drawn) is entered as active: 26.7 µM	–
O=S(=O)(Nc1ncccn1)c1ccccc1 is entered as active: 23.8 µM	–
CCCCCOC(=O)Cc1c(O)c2ccccc2n(C)c1=O is entered as inconclusive: 26.7 µM [inhibitor, partial curve]	–
